A short description of the assay: qHTS Assay for Modulators of Lamin A Splicing. The note with it: HeLa LMNA splicing GFP/RFP minigene ratio, 48 h. The method, boiled down:
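Read-out is the ratio of GFP to DsRed2 object intensity, acquired by 488 nm laser-scanning cytometry on HeLa lamin A-EGFP minigene reporter cells. Compound incubation 48 hrs at 37 °C in Opti-MEM with 2% FBS; DMSO 0.5% final.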
(In general: Quantitative high-throughput screening tests each substance at several concentrations.)

Where [1] appears, read: measured here: GFP splicing reporter channel.
[2] abbreviates: measured here: RFP viability control channel.

The list shows a part of the results. These are further read-outs of the screen, such as a control signal, another cell line or another target. No call is given for them. The list favours compounds with an active or inconclusive main result. Potencies come from curve fits of mixed quality, noted in brackets.

The term AC50 denotes the midpoint of the concentration-response curve, whichever way the signal moves.

On to `O=C(Cn1cc(S(=O)(=O)Cc2ccccc2F)c2ccccc21)NCc1ccccc1Cl`, for which the half-maximal activity concentration (AC50) under setting [1] was 35.5 µM [falling, single point]. For `Cc1cc(C)cc(NC(=O)CN2C(=O)CCc3cc(S(=O)(=O)N4CCCCC4)ccc32)c1`, under setting [2], the concentration at half-maximal activity (AC50) is 5.62 µM [rising, single point]. With `O=C(Nc1ccc(N2CCOCC2)c(Cl)c1)c1ccc(Br)o1`, under setting [2], the AC50 is 25.1 µM [rising, single point]. `CC(=O)N1c2ccc(S(=O)(=O)NCC3CCC(C(=O)Nc4ccc(F)cc4)CC3)cc2CC1C` (stereo unspecified): the half-maximal activity concentration (AC50) under setting [1] is 35.5 µM [falling, single point] and the AC50 under setting [2] is 2.51 µM [falling, partial curve]. `CCn1cc([N+](=O)[O-])c(C(=O)N2N=C(c3ccc4ccccc4c3)CC2c2cc(Br)ccc2O)n1` (stereo unspecified): the concentration at half-maximal activity (AC50) was 31.6 µM [falling, single point] under setting [1] and 35.5 µM [falling, single point] under setting [2]. Regarding `Cc1nnc(SCC(=O)Nc2cccc(C(F)(F)F)c2)n1Cc1ccco1`, the half-maximal activity concentration (AC50) under setting [1] is 1.78 µM [falling, partial curve]. For `C/C(CC(=O)NC12CC3CC(CC(C3)C1)C2)=N\NC(=O)c1ccc(C)cc1`, the AC50 is 12.6 µM [falling, partial curve, poor fit] under setting [1] and 0.251 µM [falling, full curve, poor fit] under setting [2]. For the compound `CCOc1ccc(OCC)c(NS(=O)(=O)c2ccc3[nH]c(=O)ccc3c2)c1`, the AC50 under setting [2] was 0.398 µM [rising, partial curve, poor fit].

Regarding `CC(=O)Nc1ccc(S(=O)(=O)Nc2cccc(N(C)S(C)(=O)=O)c2)cc1`, the concentration at half-maximal activity (AC50) under setting [1] was 15.8 µM [rising, partial curve, poor fit] and the AC50 under setting [2] was 17.8 µM [rising, partial curve]. Regarding `COc1ccc(NC(C)C(=O)N/N=C/c2ccc([N+](=O)[O-])s2)cc1` (stereo unspecified), under setting [2], the AC50 was 28.2 µM [rising, single point]. Take `Cc1cc(C)c(C#N)c(SCC(=O)N(C)C2CCCCC2)n1`: the AC50 is 11.2 µM [rising, single point] under setting [1] and 3.16 µM [rising, single point] under setting [2]. Take `Cn1ccnc1SCC(=O)Nc1ccc(Oc2ccccc2)cc1`: the AC50 under setting [2] is 22.4 µM [rising, single point]. Same read-out and setting: to `CCOC(=O)/C(C#N)=C1/C=C(C)NC(c2ccccc2O)=N1` belongs 2 µM [rising, full curve]. Same read-out and setting: as for `Cc1ccc(C(=O)N(c2ccccc2)C2CC(C)N(C(=O)c3ccco3)c3ccccc32)cc1` (stereo unspecified), the figure is 7.94 µM [rising, partial curve]; as for `O=C(N/C(=C/C=C/c1ccccc1)C(=O)N1CCOCC1)c1ccccc1Br`, 0.0891 µM [falling, full curve]. Take `Cc1ccc(NC(=S)N(CCN(C)C)C(C)c2cccnc2)cc1` (stereo unspecified): the AC50 reads like this: under setting [1], 15.8 µM [rising, partial curve]; under setting [2], 20 µM [rising, partial curve, poor fit].

With `COc1ccccc1N1CCN(c2nc3ccccn3c(=O)c2C=O)CC1`, under setting [2], the concentration at half-maximal activity (AC50) was 35.5 µM [rising, single point].

Take `N#Cc1c(N)c(C#N)c(-c2ccc(O)cc2)c2c1CCCC2`: under setting [2], the half-maximal activity concentration (AC50) is 17.8 µM [rising, partial curve]. Same read-out and setting: as for `O=[N+]([O-])c1cc(-c2cnc3ccccc3n2)ccc1Oc1ccc(Cl)cc1`, the figure is 14.1 µM [rising, partial curve, poor fit]. Still for that read-out and setting: to `COc1ccc(C2CC(C(F)(F)F)n3nc(C(N)=O)c(Cl)c3N2)cc1OC` (stereo unspecified) belongs 11.2 µM [rising, partial curve]. Consider `O=C(CN1CCCCC1)Nc1cccc2c1OCO2`, for which the AC50 under setting [1] is 5.62 µM [falling, single point] and the AC50 under setting [2] was 6.31 µM [falling, single point].

With `Cc1cc(C)nc(N(C#N)Cc2cccc3ccccc23)n1`, the AC50 under setting [2] is 15.8 µM [rising, single point]. On to `CC1CN(S(=O)(=O)c2cccc(C(=O)Nc3ccc4c(c3)CCC4)c2)CC(C)O1` (stereo unspecified), for which the AC50 was 0.00891 µM [rising, full curve, poor fit] under setting [1] and 22.4 µM [rising, partial curve] under setting [2]. For the compound `CCC/C=C(\CCC)C(NS(=O)(=O)c1ccc(C(F)(F)F)cc1)c1ccccc1` (stereo unspecified), under setting [2], the AC50 is 28.2 µM [rising, partial curve]. Still for that read-out and setting: to `O=C(Cn1ccc2ccccc2c1=O)NCCC(=O)Nc1ccc2c(c1)OCCO2` belongs 0.708 µM [falling, single point]; to `Fc1ccc(N=c2ssnc2Cl)c(F)c1`, 0.00501 µM [falling, full curve, poor fit]; to `COCCN=c1scc(-c2ccccc2)n1/N=C/c1c[nH]c2ccccc12`, 17.8 µM [rising, single point].

Regarding `C=CCN1C(=O)CSc2ccc(C(=O)NCc3cccs3)cc21`, under setting [2], the concentration at half-maximal activity (AC50) was 0.0891 µM [falling, full curve].

In the case of `C=CCn1c(=N)c(C(=O)NCCCOC)cc2c(=O)n3ccccc3nc21`, under setting [1], the half-maximal activity concentration (AC50) was 15.8 µM [rising, single point]. For `O=c1cnc2cncnc2n1Cc1ccccc1`, the half-maximal activity concentration (AC50) is, setting by setting: under setting [1], 3.16 µM [falling, full curve]; under setting [2], 3.55 µM [falling, full curve]. Turning to `Cc1cccc(C(=O)Nc2sc(C)c(-c3ccccc3)c2C#N)c1`, the concentration at half-maximal activity (AC50) under setting [1] is 11.2 µM [rising, partial curve] and the AC50 under setting [2] is 17.8 µM [rising, partial curve]. In the case of `CCCc1cc(=O)[nH]c(SCC(=O)Nc2nc3ccc(OCC)cc3s2)n1`, the half-maximal activity concentration (AC50) under setting [2] was 22.4 µM [falling, single point]. Take `Cc1ccccc1OCCCSc1nc2ccccc2[nH]1`: the AC50 was 35.5 µM [rising, single point] under setting [1] and 35.5 µM [rising, partial curve] under setting [2]. As for `COc1cccc(C2(CSc3nnc(-c4cc(OC)c(OC)c(OC)c4)o3)OCCO2)c1`, the concentration at half-maximal activity (AC50) under setting [2] was 17.8 µM [rising, single point]. As for `CC(=O)C(Sc1nc(NC(C)(C)C)nc(N(C)C)n1)C(C)=O`, the concentration at half-maximal activity (AC50) by setting is: under setting [1], 1.78 µM [rising, full curve, poor fit]; under setting [2], 14.1 µM [rising, partial curve, poor fit]. Turning to `CC(C)c1ccc(NC(=S)NCCc2c[nH]c3ccccc23)cc1`, the AC50 by setting is: under setting [1], 14.1 µM [rising, single point]; under setting [2], 35.5 µM [rising, partial curve].

In the case of `CCOc1ccc(C(=O)Nc2ccc3nc(SCC(=O)N(C)c4ccccc4)sc3c2)cc1`, the half-maximal activity concentration (AC50) under setting [1] was 4.47 µM [falling, full curve] and the AC50 under setting [2] was 0.0794 µM [falling, full curve, poor fit]. Consider `CCOC(=O)c1cc(-c2ccc(OC)cc2)n(CCC(=O)Nc2ccc(OC)cc2OC)c1C`, for which the AC50 under setting [2] is 0.00501 µM [falling, full curve].

On to `O=C(CSc1nnc(CSc2nc3ccccc3s2)o1)NC1CCCCC1`, for which the AC50 is, setting by setting: under setting [1], 35.5 µM [rising, single point]; under setting [2], 35.5 µM [rising, single point]. Consider `CC(C)c1ccccc1OCC(=O)NCC(c1cccs1)N1CCOCC1` (stereo unspecified), for which the AC50 reads like this: under setting [1], 6.31 µM [rising, single point]; under setting [2], 17.8 µM [rising, single point]. As for `CN(C)S(=O)(=O)c1ccc(C(=O)NCCSc2ccc(Br)cc2)cc1`, the half-maximal activity concentration (AC50) under setting [2] was 31.6 µM [rising, single point].

For the compound `Cc1[nH]c2ccccc2c1C(=O)COC(=O)Cn1c(C)nc2ccccc21`, the AC50 under setting [1] is 12.6 µM [rising, partial curve].

On to `Nc1c(C(=O)Nc2ccccc2)sc2nc(-c3ccco3)ccc12`, for which, under setting [2], the AC50 was 12.6 µM [rising, partial curve, poor fit].

In the case of `Fc1ccc(NC(=S)Nc2ccccc2OC(F)F)cc1Cl`, the AC50 under setting [2] was 20 µM [rising, partial curve].

Consider `CCc1cccc(OCC(=O)Nc2ccc(S(=O)(=O)Nc3ccccn3)cc2)c1`, for which, under setting [2], the AC50 was 31.6 µM [falling, partial curve, poor fit]. As to `O=C1CN(C(=O)CSc2nnc(C3CC3)n2-c2ccccc2)c2ccccc2N1`, under setting [1], the AC50 is 0.316 µM [rising, full curve]. With `Cc1cc(/C=N/NC(=O)CC2(C)OCCO2)c(C)n1-c1ccc(Cl)c(Cl)c1`, the AC50 under setting [2] is 35.5 µM [rising, single point].

`Fc1ccc(C2=CC(c3ccc(Br)o3)n3ncnc3N2)cc1` (stereo unspecified): the half-maximal activity concentration (AC50) runs as follows: under setting [1], 0.794 µM [rising, full curve, poor fit]; under setting [2], 0.01 µM [rising, full curve, poor fit]. With `Clc1ncnc2scc(-c3ccc(Br)cc3)c12`, the concentration at half-maximal activity (AC50) under setting [2] was 35.5 µM [rising, single point]. Same read-out and setting: as for `COc1ccc2c(CC(=O)Nc3ccc(OC)c(NS(=O)(=O)c4ccc(F)cc4)c3)coc2c1`, the figure is 10 µM [rising, partial curve, poor fit]; as for `COc1ccc(N2CCN(Cc3cc4c(cc3O)CCC4)CC2)cc1`, 35.5 µM [rising, single point]; as for `CN(C)N1C(N)=C(C#N)C(c2cccs2)C2=C1CC(C)(C)CC2=O` (stereo unspecified), 4.47 µM [rising, single point].

As for `Cc1ccsc1C(C(=O)NC1CCCCC1)N(C(=O)Cc1cccs1)C1CC1` (stereo unspecified), the AC50 under setting [2] is 2 µM [rising, full curve, poor fit]. Turning to `CC(=O)O/N=C1\C(=O)N(Cc2ccc(C)cc2)c2ccccc21`, the half-maximal activity concentration (AC50) is 0.794 µM [falling, full curve] under setting [1] and 0.501 µM [falling, full curve] under setting [2].

For the compound `Oc1ccc(C(=S)N2CCCCC2)cc1Cl`, the concentration at half-maximal activity (AC50) is 22.4 µM [rising, single point] under setting [1] and 25.1 µM [rising, partial curve] under setting [2]. As for `CC(C)C(c1nnnn1C1CCCCC1)N1CCc2ccccc21` (stereo unspecified), the AC50 under setting [2] is 12.6 µM [rising, single point].

As to `CCOC(=O)c1ccc(NC(=O)c2c(NCc3cc(OC)ccc3OC)sc3c2CCC3)cc1`, the AC50 under setting [1] was 0.0398 µM [rising, full curve, poor fit].

The values above are taken from PubChem BioAssay AID1487 (National Center for Advancing Translational Sciences (NCATS), 2009).
